Reference: patent US20100093634A1 (UNIVERSITY OF MARYLAND BALTIMORE, published 2010)

How the values were obtained:
Test in all cases: condition: 2-5 µg of His-tagged adaptor and an equal quantity of GST fusion in 300 µl; pull-down on Ni-NTA beads, anti-GST Western blot
[1] = molecular target: His-tagged Dab-2 (PTB-domain clathrin adaptor)
[2] = molecular target: His-tagged GULP (PTB-domain clathrin adaptor)
[3] = molecular target: His-tagged Numb (PTB-domain clathrin adaptor)

Measured: binding

EVETPHCAMCLYNEKDARARMKRGYDNPNFVLSEVDETDDTQM (peptide, not shown: a dimerising Fc or GST) [GST fusion of the wild-type (WT) ROMK1 C-terminus (amino acids 349-391)]
no binding: all assays above

Results are given in words; binding and its absence hold for the method and conditions named. Sequences can lack the tags named with a protein.
